Assay results reported in patent US6551997B1, “Engineered polypeptides in personal care applications” (Biosil Research Institute INC, priority 2002, dated 2003).
No end group written: not given here.

Experiment: Comb properties evaluation of conditioner formulations on hair tresses (visual and tactile observations)
Set-up: key: 1: Very poor; 2: Poor; 3: Satisfactory; 4: Good; 5: Excellent
Details: 1.0% polypeptide added to Base Formula, test scale 1-5

Row | Sequence | Product Spreadbility | Residual Feel | Shine | Smoothness of Product | Squeaky Feel | Wet Combing
1 | ALRSCLAKPSALRSCLPAKSALRSCLAKPSALRSCLPAKS (cysteine pairing not given here) [polypeptide 3] | 4 | 4 | 3 | 4 | 3 | 4
2 | ALRSSLAKKSALRSKLAAKS [polypeptide 9, reference compound] | 2 | 2 | 1 | 3 | 1 | 2
3 | ALRSCLAKPSALRSCLPAKCALRSCLAKCPSALRSCLPAK (cysteine pairing not given here) [polypeptide 5] | 4 | 4 | 4 | 4 | 3 | 5
4 | ALRSCLAKPSALRSCLPAKS (cysteine pairing not given here) [polypeptide 2] | 4 | 4 | 2 | 4 | 2 | 5
5 | ALRSCLPAKSALRSCLPAKS (cysteine pairing not given here) [polypeptide 1] | 5 | 4 | 3 | 5 | 3 | 5
6 | APRSCLAKPSALRSCLSACS (cysteine pairing not given here) [polypeptide 8] | 4 | 4 | 2 | 4 | 3 | 5
7 | ALRSCLAKPSALRSCLSAKSALRSCLAKPSALRSCLSAKS (cysteine pairing not given here) [polypeptide 7] | 4 | 3 | 3 | 3 | 3 | 4
8 | ALRSSLACKSALRSKLAAKSALRSSLAKASALRSSLAAKP [polypeptide 10, reference compound] | 2 | 2 | 2 | 3 | 2 | 3
9 | ALRSCLAKPSALRSCLAKCALRSCLAKCPSALRSSRLPAK (cysteine pairing not given here) [polypeptide 6] | 4 | 4 | 3 | 4 | 3 | 4
10 | ALRSCLAKPSALRSCLPAKSALRSCLAKPSALRSCLKAKSALRSCLAKPSALRSCLKAKS (cysteine pairing not given here) [polypeptide 4] | 4 | 3 | 3 | 4 | 4 | 4
